Among the data in patent US12617827B2, “Self-assembling peptide” (NATIONAL UNIVERSITY CORPORATION TOKYO MEDICAL AND DENTAL …, priority 2020, dated 2026) are binding values, retold here.

Results are given in words; binding and its absence hold for the method and conditions named. Binding can be weak; no strength is given.

The experiment concerns the target T1, P4 peptide (…), as P4 peptide gel.
T1 sequence (peptide, acetyl group at the N-terminus; C-terminus is NH2 amide): RIDARMRADIR
The experiment in a line: incorporation into the peptide gel; sandwich ELISA of washes; lower incorporation than VEGF-P4, value only in FIG. 7A. In general terms: An ELISA detects its analyte on a solid surface through an enzyme-linked reagent.

Turning to “VEGF peptide to which P4 peptide is not fused (ligand)”, the binding result was “binds”.
